Structures can show the parent of a compound that is named as a salt. This is one part of the list. Single values are uncertain here, since repeats match poorly.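 Wild-type human LRH-1, a heavily sumoylated nuclear receptor, is tetracycline-inducible in stable JEG3 cells. RT-qPCR measured SUMO-sensitive APOC3 and MUC1 transcripts, which rise with SUMO-less LRH-1 or UBC9 knockdown, versus TBP and DMSO controls. Robust Z-scores beyond ±2 flagged primary hits, followed by toxicity and TBP filtering.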
tested on: JEG3 expressing hLRH-1; assay: MUC1 transcript change (ddCt vs TBP and DMSO), Z-score over library; higher = higher MUC1 expression; details: 10 µM; time (hr): 24

SMILES | MUC1 transcript change (Z-score)
CC(=O)O[C@H]1C[C@@H]2CC[C@@H]3[C@H](CC[C@@]4(C)[C@H]3C[C@H]([N+]3(C)CCCCC3)[C@@H]4OC(C)=O)[C@@]2(C)C[C@@H]1[N+]1(C)CCCCC1 [pancuronium bromide] | 0.0667
O=C(N/N=C/c1ccc([N+](=O)[O-])o1)c1cc([N+](=O)[O-])cc([N+](=O)[O-])c1O [nifursol] | -0.85
C=CCN1CC[C@]23c4c5ccc(O)c4O[C@H]2C(=O)CC[C@@]3(O)[C@H]1C5 [naloxone hydrochloride] | -0.109
O=C(NC(=O)c1c(F)cccc1F)Nc1cc(Cl)c(OC(F)(F)C(F)C(F)(F)F)cc1Cl (stereo not given) [lufenuron] | -0.349
CO[C@]12C[C@@H](COC(=O)c3cncc(Br)c3)CN(C)[C@@H]1Cc1cn(C)c3cccc2c13 [nicergoline] | 0.32
CC[C@@]1(C2O[C@@H](C3O[C@@](O)(CC)[C@H](C)C[C@@H]3C)C[C@@H]2C)CC[C@H]([C@]2(C)CCC3(C[C@H](O)[C@@H](C)[C@@H]([C@H](C)[C@@H](OC)[C@H](C)C(=O)O)O3)O2)O1 (stereo not given in full) [monensin sodium (monensin a is shown)] | 0.81
COP(=O)(OC)C(O)C(Cl)(Cl)Cl (stereo not given) [trichlorfon] | 0.593
CN(C)C(=O)Oc1cc(OC(=O)N(C)C)cc(C(O)CNC(C)(C)C)c1 (stereo not given) [bambuterol hydrochloride] | -0.926
CN(C)C(=O)Oc1cccc([N+](C)(C)C)c1 [Neostigmine bromide] | 1.01
COP(=O)(OC)OC=C(Cl)Cl [dichlorvos] | -0.138
S=C=NCc1ccccc1 [benzyl isothiocyanate] | 0.73
CCC(C)[C@H]1O[C@]2(C=C[C@@H]1C)C[C@@H]1C[C@@H](C/C=C(\C)[C@@H](OC3C[C@H](OC)C(O[C@H]4C[C@H](OC)[C@@H](O)[C@H](C)O4)[C@H](C)O3)[C@@H](C)/C=C/C=C3\CO[C@@H]4[C@H](O)C(C)=C[C@@H](C(=O)O1)[C@]34O)O2 (stereo not given in full) [avermectin b1] | 0.457
O=c1[nH]c(=O)n(Cl)c(=O)n1Cl [troclosene potassium] | -0.189
CCCC(C)(COC(N)=O)COC(=O)NC(C)C (stereo not given) [Carisoprodol] | 0.751
CN1C2CC[C@@H]1C[C@@H](OC(=O)[C@H](CO)c1ccccc1)C2 [hyoscyamine] | -0.575
CN(C)[C@@H]1C(=O)C(C(N)=O)=C(O)[C@@]2(O)C(O)=C3C(=O)c4c(O)cccc4[C@@](C)(O)[C@H]3[C@H](O)[C@@H]12 [oxytetracycline] | 0.691
CN1CCN(C(=O)O[C@H]2c3nccnc3C(=O)N2c2ccc(Cl)cn2)CC1 [eszopiclone] | 1.35
NC(=O)C[S@@](=O)C(c1ccccc1)c1ccccc1 [armodafinil] | -0.00878
CN(C)[C@@H]1C(=O)C(C(N)=O)=C(O)[C@@]2(O)C(O)=C3C(=O)c4c(O)ccc(Cl)c4[C@@](C)(O)[C@H]3C[C@@H]12 [chlortetracycline] | 0.773
CCC1(c2ccc(N)cc2)CCC(=O)NC1=O (racemic) [(±)-p-Aminoglutethimide] | 0.648
NCC(CC(=O)O)c1ccc(Cl)cc1 (racemic) [(±)-Baclofen] | 0.512
CC(C)CC(N(C)C)C1(c2ccc(Cl)cc2)CCC1 (stereo not given) [sibutramine hydrochloride] | 0.638
CC(C)[N+](C)(CCC(C(N)=O)(c1ccccc1)c1ccccc1)C(C)C [isopropamide iodide] | -0.0216

SMILES | MUC1 transcript change (Z-score)
O=C1CC[C@@]2(O)[C@H]3Cc4ccc(O)c5c4[C@@]2(CCN3CC2CC2)[C@H]1O5 [naltrexone hydrochloride] | -0.0823
CCOC(=O)CC(SP(=S)(OC)OC)C(=O)OCC (stereo not given) [malathion] | 0.33
CN(C)[C@@H]1C(=O)C(C(N)=O)=C(O)[C@@]2(O)C(O)=C3C(=O)c4c(O)cccc4[C@@](C)(O)[C@H]3C[C@@H]12 [tetracycline hydrochloride] | -0.41
CCCN1C[C@H](CSC)C[C@@H]2c3cccc4[nH]cc(c34)C[C@H]21 [Pergolide methanesulfonate] | 0.601
CC(N)Cc1ccc(O)cc1 (stereo not given) [hydroxyamphetamine hydrobromide] | -1.41
CC(NC(C)(C)C)C(=O)c1cccc(Cl)c1 (stereo not given) [Bupropion hydrochloride] | 0.269
NCc1cccnc1 [picolamine] | 0.193
NC1C[C@H]1c1ccccc1 (stereo not given in full) [tranylcypromine sulfate] | 1.24
O=P1(N(CCCl)CCCl)NCCCO1 (stereo not given) [cyclophosphamide hydrate] | -0.163
CCCCOC(=O)c1ccccc1C(=O)OCCCC [dibutyl phthalate] | -0.935
N#Cc1nn(-c2c(Cl)cc(C(F)(F)F)cc2Cl)c(N)c1S(=O)C(F)(F)F (stereo not given) [fipronil] | 0.415
O=c1cccc2n1C[C@@H]1CNC[C@H]2C1 [cytisine] | -0.416
Cl[C@H]1[C@H](Cl)[C@@H](Cl)[C@@H](Cl)[C@H](Cl)[C@H]1Cl [lindane] | -3.65
CCOP(=S)(OCC)Oc1ccc2c(C)c(Cl)c(=O)oc2c1 [coumophos] | -0.787
C#CC(C)(O)CC (stereo not given) [meparfylon] | 0.328
Cc1ccc(-c2nc3ccc(C)cn3c2CC(=O)N(C)C)cc1 [zolpidem] | -0.815
CCCC(C)C1(CC)C(=O)N=C(S)NC1=O (stereo not given) [thiopental sodium] | 0.412
COC(C)(C)CCC[C@H](C)C/C=C/C(C)=C/C(=O)OC(C)C [methoprene (s)] | 0.935
O=[N+]([O-])c1cc([As](=O)(O)O)ccc1O [roxarsone] | 0.2
CC(C)c1cccc(C(C)C)c1O [Propofol] | 0.491
Oc1ccc2c3c1O[C@H]1[C@@H](O)CC[C@@]4(O)[C@@H](C2)N(CC2CCC2)CC[C@]314 [nalbuphine hydrochloride] | 0.199
CC1(C)C(C=C(Cl)Cl)C1C(=O)OC(C#N)c1cccc(Oc2ccccc2)c1 (stereo not given) [cypermethrin] | 0.539

Looked up by structure from above, 3 records:
SMILES | MUC1 transcript change (Z-score)
O=c1[nH]c(=O)n(Cl)c(=O)n1Cl [troclosene potassium] | -0.189
O=C(N/N=C/c1ccc([N+](=O)[O-])o1)c1cc([N+](=O)[O-])cc([N+](=O)[O-])c1O [nifursol] | -0.85
C=CCN1CC[C@]23c4c5ccc(O)c4O[C@H]2C(=O)CC[C@@]3(O)[C@H]1C5 [naloxone hydrochloride] | -0.109

Source: the supplement of paper PMC4749390
